Laboratory results taken from patent US20240293499A1.
No constants are given. Whether binding was seen depends on the method and setting. Some results given as binding are weak or reduced against the parent protein; the word gives no strength.

Tests used:
[1] = biological target: T1, human VISTA (hVISTA), as used in the hybridoma screening; form not stated (human) (UniProt Q9H7M9); assay: ELISA screening of hybridomas
T1 sequence (looked up): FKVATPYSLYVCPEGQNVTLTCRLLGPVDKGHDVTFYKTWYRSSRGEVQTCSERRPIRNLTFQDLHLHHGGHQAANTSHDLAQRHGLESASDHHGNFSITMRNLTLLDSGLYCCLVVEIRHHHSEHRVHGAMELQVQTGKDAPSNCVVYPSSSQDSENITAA

[2] = biological target: T2, murine VISTA (mVISTA), recombinant; form not stated (mouse) (UniProt Q9D659); assay: ELISA screening of hybridomas
T2 sequence (looked up): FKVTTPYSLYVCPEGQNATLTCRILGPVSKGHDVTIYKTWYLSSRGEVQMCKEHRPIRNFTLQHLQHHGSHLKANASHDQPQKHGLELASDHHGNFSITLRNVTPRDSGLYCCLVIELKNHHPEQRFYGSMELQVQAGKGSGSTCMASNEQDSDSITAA

[3] = biological target: T3, murine VISTA on mouse splenocytes (macrophages, neutrophils, CD4+ T cells) (mouse) (UniProt Q9D659); assay: flow cytometry on mouse splenocytes (FIG. 3B)
T3 sequence (looked up): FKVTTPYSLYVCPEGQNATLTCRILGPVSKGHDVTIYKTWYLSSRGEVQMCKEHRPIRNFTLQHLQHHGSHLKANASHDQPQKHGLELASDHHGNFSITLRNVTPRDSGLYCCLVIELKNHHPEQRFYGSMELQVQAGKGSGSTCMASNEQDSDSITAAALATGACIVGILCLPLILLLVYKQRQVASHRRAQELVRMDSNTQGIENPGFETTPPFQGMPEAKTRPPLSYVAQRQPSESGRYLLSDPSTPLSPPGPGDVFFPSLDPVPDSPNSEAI

[4] = biological target: T3, murine VISTA on mouse splenocytes (macrophages, neutrophils, CD4+ T cells) (mouse); assay: flow cytometry on mouse splenocytes, ΔMFI against isotype control, 3 mice

Measured: binding

B1: rat anti-hmVISTA mAb 7C7 (antibody, V domains shown)
VH: EVQLVESGGGLVQPGRSLKLSCVASGFTFNKYWMSWTRQAPGKGLEWVASITNSGGNTYYPDSVKGRFTISRDNAQNTLYLQMNSLRSEDTATYYCTLGVDYWGQGAMVTVSS
VL: DVVMTQTPPSLSVTIGQSVSISCKSSQSLVYSDGKTYLHWLLQSSGRSPKRLIYQVSNLASGVPDRFSGTGSQKDFTLKISRVEAKDLGVYYCAQTTHFPYTFGAGTKLEMK
binds: all assays above
